In PubChem BioAssay AID624415 (National Center for Advancing Translational Sciences (NCATS), 2012):
Several values for one entry are separate records, joined by “and”; a condition that tells them apart may be missing. Identical values can stand only once. The campaign covered roughly 390,000 compounds. About 60 (0.02%) were called active. This list was built around the results that the source calls inconclusive (neither active nor inactive); the mix of calls is not that of the screen. Cut-off read from the data, not from the text of the source: active = activity change below about -50%; inconclusive = between about -30% and that limit; inactive = weaker than that.

The chains behind the UniProt entries cited, without tags or fusion partners.
UniProt Q9GZU1, whole entry, looked up: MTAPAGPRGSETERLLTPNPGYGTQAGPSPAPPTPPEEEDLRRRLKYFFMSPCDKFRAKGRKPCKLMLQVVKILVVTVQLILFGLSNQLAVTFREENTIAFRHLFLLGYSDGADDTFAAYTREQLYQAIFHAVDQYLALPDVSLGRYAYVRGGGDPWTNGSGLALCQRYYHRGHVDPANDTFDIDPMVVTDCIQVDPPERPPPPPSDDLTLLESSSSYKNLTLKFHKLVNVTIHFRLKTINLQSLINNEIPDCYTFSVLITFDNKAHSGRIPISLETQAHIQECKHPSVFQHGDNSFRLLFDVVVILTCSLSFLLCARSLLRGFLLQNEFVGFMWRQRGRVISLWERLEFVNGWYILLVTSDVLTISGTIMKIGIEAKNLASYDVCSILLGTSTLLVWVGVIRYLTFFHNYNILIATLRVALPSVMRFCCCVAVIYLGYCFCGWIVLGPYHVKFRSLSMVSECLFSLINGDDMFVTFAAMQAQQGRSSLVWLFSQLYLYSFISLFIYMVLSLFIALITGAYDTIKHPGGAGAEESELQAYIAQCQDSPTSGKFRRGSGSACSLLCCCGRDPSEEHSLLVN

The molecules below were run against Mucolipin-1 (Homo sapiens) (UniProt Q9GZU1) (assay: qHTS for Inhibitors of the Human Mucolipin Transient Receptor Potential 1 (TRPML1)). Conditions: TRPML1-inducible cells, Ca2+ dye fluorescence, FDSS; active compounds read low; inhibition of EC80 agonist-evoked calcium signal.
How it was run: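 TRPML1-DL cells, Tet-induced overnight (~16 h, 37 °C) at 1,500 cells/well, were loaded with Ca8 no-wash dye plus quencher for 45-90 min at room temperature. Compounds were pinned during FDSS kinetic reading; agonist 54-4 at EC80 (4 uM final) then added.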
% is set by controls: 0 for no effect and ±100 for the full control effect.
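Note: stimulus is agonist 54-4 at its EC80 concentration.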

Structure (SMILES) | activity change, negative = inhibition
COc1ccc(CNCc2ccc(C(F)(F)F)cc2)cc1OC | inconclusive: -35%
CCN1CCN(c2nnc(-c3ccc(F)cc3)c3ccccc23)CC1 | inconclusive: -35.9%
Cn1c(=O)n(Cc2ccccc2)c(=O)c2c1nc1n2CCN1Cc1ccco1 | inconclusive: -32.5%
COc1cc(OC)cc(C(=O)NNC(=O)c2cc(S(=O)(=O)N3CCOCC3)ccc2F)c1 | inconclusive: -30.7%
Cc1ccc(-n2nnnc2SC(C)C(=O)NCC(=O)Nc2ccc(F)c(F)c2F)c(C)c1 (stereo unspecified) | inactive: -5.38%
c1ccc(CNCCCn2cnc3c(OCc4ccccc4)ncnc32)cc1 | inactive: 7.81%
COC(=O)c1ccc(C)c(NC(=O)CCc2cc(OC)c(OC)c(OC)c2)c1 | inconclusive: -40.7%
O=C(NCc1ccccc1Cl)C1=CC=CN2CCS(=O)(=O)N=C12 | inconclusive: -33.7%
Cc1cc(NC(=O)c2cc(S(=O)(=O)N3CCCCC3)ccc2C)no1 | inconclusive: -36%
COc1cc(/C=C2\C(=O)N(c3cccc(C(=O)O)c3)N=C2C)ccc1OCc1ccccc1 | inconclusive: -35.6%
CCOc1cc(/C=C\c2[nH]c(=O)[nH]c(=O)c2[N+](=O)[O-])ccc1OC(C)CC (stereo unspecified) | active: -71%
COc1ccc(S(N)(=O)=O)cc1C(=O)NCCCN1CCN(c2cccc(Cl)c2)CC1 | inactive: 9.7%
CCOC(=O)c1c(C)[nH]c(CCC(=O)Nc2cc(C)cc(C)c2)c1C | inconclusive: -35.5%
O=C(Nc1c(C(=O)Nc2cccc(F)c2)oc2ccccc12)c1ccc2c(c1)OCO2 | inconclusive: -35%
CC1CCC2(CC1)NC(=O)N(CC(=O)Nc1ccc(F)cc1)C2=O (stereo unspecified) | inconclusive: -41.2%
COc1ccc(N(C(=O)c2snc(C(N)=O)c2N)C(C(=O)NC2CCCC2)c2ccc(F)cc2)c(OC)c1 (stereo unspecified) | inconclusive: -34.3%
Cc1ccc(C)c(NC(=O)CCCN2C(=O)COc3ccc(C)cc32)c1 | inconclusive: -45%
CS/C(=N\S(=O)(=O)c1cccs1)NC(=O)CSc1nc2ccccc2s1 | inconclusive: -39.8%
COC(=O)[C@@H]1C[C@@]2(O)[C@@H](O)[C@@H](O)[C@@H](O)C[C@H]2N1Cc1cc(OC)cc(OC)c1 | inconclusive: -32.4%

Structure (SMILES) | activity change, negative = inhibition
O=C(Nc1ccc(OC(F)(F)F)cc1)c1ccc2nccnc2c1 | inconclusive: -36.6%
CCOc1ccc(S(=O)(=O)N/N=C2/CCCC(=O)C2)cc1 | inconclusive: -33%
NC(=O)C1CCN(CCS(=O)(=O)c2ccc(Cl)cc2)CC1 | inconclusive: -33.5%
c1ccc2c(c1)ncn2CCCOc1ccc2c(c1)CCC2 | inactive: -8.9%
CCCNC(=O)c1cc(C2CCCCN2S(C)(=O)=O)on1 (stereo unspecified) | inactive: 0.0575%
CC1(c2ccc([N+](=O)[O-])cc2)Nc2ccccc2S1 (stereo unspecified) | inconclusive: -38.5%
CCCCCC(=O)NC(=S)Nc1ccc(N2CCCCC2)c(Cl)c1 | inactive: -23.6%
CCOc1cc(N2CCOCC2)c(OCC)cc1NC(=O)CN1CCCC1 | inconclusive: -30.8%
O=C(c1ccco1)N1CCCC(Nc2ccc3c(c2)OCCO3)C1 (stereo unspecified) | inactive: 32.9%
Cn1c(NC(=O)CCc2ccccc2)cc(=O)n(C)c1=O | inconclusive: -31.3%
C[n+]1c2cc(N)ccc2cc2ccc(N)cc21 | inconclusive: -40.3%
O=C(Nn1cnc2ccccc2c1=O)c1ccccc1[N+](=O)[O-] | inconclusive: -31.4%
CCN(CC)c1ccc2cc(-c3nnc(-c4ccncc4)o3)c(=O)oc2c1 | inconclusive: -46.5%
CS(=O)(=O)c1[nH]nc(-c2ccccc2Cl)c1C#N | inconclusive: -34.3%
CC(OC(=O)c1cccs1)C(=O)NC1CCCCC1C (stereo unspecified) | inactive: -0.127%
CCN1C(=O)/C(=C2/Sc3ccc(OC)cc3N2C)SC1=Nc1ccc(OC)cc1 | inactive: 1.6%
COc1cccc(-n2ccnc2SCC(=O)Nc2nc3ccc(C)cc3s2)c1 | inconclusive: -41.3%
Cc1ccc(OCC(=O)Nc2c[nH]c(=O)[nH]c2=O)cc1C | inconclusive: -35%
Cc1ccc(-c2cc(C(=O)O)c3cc(Br)ccc3n2)o1 | inconclusive: -36%

Structure (SMILES) | activity change, negative = inhibition
CCOC(=O)C1CCN(C(=O)c2ccc3c(=O)n4nc(Nc5ccccc5)sc4nc3c2)CC1 | inactive: -5.46% and inactive: 2.71%
CC(NC(=O)c1ccco1)C1CCCO1 (stereo unspecified) | inconclusive: -31.5%
O=C(OCc1cc(=O)n2nc(C3CC3)sc2n1)c1ccc(NC(=O)c2ccccc2Cl)cc1 | inconclusive: -39.1%
Cc1ccc(Nc2nc(N)nc(CN3CCN(Cc4ccccc4)CC3)n2)cc1Cl | active: -62.2%
CCC(C)[C@H]1CNCCN1CCc1cccc2ccccc12 (stereo partly specified) | inconclusive: -42.8%
c1ccc(N(c2ccccc2)c2nc(N3CCCC3)nc(-n3ccnc3)n2)cc1 | inactive: 5.38%
Cc1c(C(=O)Nc2cccnc2)oc2ccc(Br)cc12 | inactive: -5.87%
COc1ccc(C(=O)NCc2nnc(SCC(=O)NCc3ccc(F)cc3)o2)cc1 | inconclusive: -31.1%
Cn1nc(-c2ccccc2)c2nc3ccccc3nc21 | inactive: -3.51%
CN1CCN(c2nc(C(N)=O)cc(-c3ccccc3)n2)CC1 | inconclusive: -36.3%
COc1ccc(C(=O)Nc2ccc(N3CCN(C(=O)c4ccccc4)CC3)cc2)cc1[N+](=O)[O-] | inconclusive: -34.4%
CC(C)C(=O)Nc1c(O)c2ccccc2[nH]c1=O | inconclusive: -35.2%
Cc1cc(C)n(Cc2ccc(C(=O)O)cc2)n1 | inactive: 8.2%
Oc1c(Br)cc(Br)cc1C=NCc1ccccc1 | inactive: -4.46%
Cc1ccc(NC(=O)C(=Cc2ccc(C(=O)O)cc2)C(=O)Nc2ccc(C)cc2C)c(C)c1 | inactive: -10.2%
COc1cccc(-c2nc(CS(=O)(=O)CC(=O)N3CCCCC3)c(C)o2)c1 | inconclusive: -37.2%
Clc1ccc(Cn2c(-c3cccnc3Cl)nc3ccccc32)c(Cl)c1 | inactive: -0.759%
CCn1c(/C(C#N)=N/O)nc2ccccc21 | inconclusive: -32.2%
